In patent US20240345008A1 (Eth Zurich, priority 2021, published 2024):
Positions of bridges follow the written chain, without caps; N, C: chain ends. Non-standard residues stand in square brackets, D forms with d. Residues, ends and D or L forms follow the SMILES beside them. hArg = N=C(N)NCCCC[CH](N)C(=O)O; Mpa = O=C(O)CCS

assay: photo-CIDNP polarizability of ligands: signal-to-noise enhancement (SNE), irradiated vs non-irradiated 1H NMR; type: physicochemical; conditions: photosensitizer AT12 25 μM, ligand 100 μM, 532 nm, 2 s irradiation, 600 MHz, phosphate buffer pH 7.0

Row | SMILES | signal-to-noise enhancement (SNE)
1 | CCc1c(OC)sc(OC)c1CCNCc1ccccc1OC [2-(2,5-Dimethoxy-4-ethylthiophenyl)-N-[(2-methoxyphenyl)methyl]ethanamine] | 8
2 | CCSc1cc(OC)c(CCN)cc1OC.Cl [2-[2,5-Dimethoxy-4-(ethylthio)phenyl]ethanamine•hydrochloride] | 7
3 | NC(=O)C1CSSCCC(=O)NC(CCCCN=C(N)N)C(=O)NCC(=O)NC(CC(=O)O)C(=O)NC(Cc2c[nH]c3ccccc23)C(=O)N2CCCC2C(=O)N1 (stereo not drawn) [2-[20-carbamoyl-12-[4-(diaminomethylideneamino)butyl]-3-(1H-indol-3-ylmethyl)-2,5,8,11,14,22-hexaoxo-17,18-dithia-1,4,7,10,13,21-hexazabicyclo[21.3.0]hexacosan-6-yl]acetic acid] ([Mpa][hArg]GDWPC-NH2; disulfide 1-7; configuration not given here) | 56
4 | CN(C)CCc1c[nH]c2cccc(O)c12 [3-[2-(dimethylamino)ethyl]-1H-indol-4-ol] | 61
5 | COc1ccc2c3c([nH]c2c1)C(C)=NCC3 [7-methoxy-1-methyl-3H,4H,9H-pyrido[3,4-b]indole] | 42
6 | c1ccc(CCNc2nc3ccccc3[nH]2)cc1 [N-(2-phenylethyl)-1H-benzimidazol-2-amine] | 6
7 | FC(F)(F)c1cccc(N2CCNCC2)c1 [N-(3-Trifluoromethylphenyl)-piperazine] | 10

same assay, conditions: photosensitizer FMN 25 μM, ligand 100 μM, 450 nm, 2 s irradiation, 600 MHz, phosphate buffer pH 7.0

Row | SMILES | signal-to-noise enhancement (SNE)
8 | CC(N)Cc1ccc2c(c1)OCO2 (stereo not drawn) [1-(1,3-Benzodioxol-5-yl)propan-2-amine] | 29
9 | CN(C)CCc1c[nH]c2cccc(O)c12 [3-[2-(dimethylamino)ethyl]-1H-indol-4-ol] | 17
10 | FC(F)(F)c1cccc(N2CCNCC2)c1 [N-(3-Trifluoromethylphenyl)-piperazine] | 90

same assay, conditions: photosensitizer fluorescein 25 μM, ligand 100 μM, 450 nm, 2 s irradiation, 600 MHz, phosphate buffer pH 7.0

Row | SMILES | signal-to-noise enhancement (SNE)
11 | CCn1cc(C(=O)O)c(=O)c2cc(F)c(N3CCNCC3)cc21 [1-ethyl-6-fluoro-4-oxo-7-(piperazin-1-yl)-1,4-dihydroquinoline-3-carboxylic acid] | 10
12 | NNc1nncc2ccccc12 [1-hydrazinylphthalazine] | 21
13 | O=C1CCN(c2ccccc2)N1 [1-phenylpyrazolidin-3-one] | 33
14 | Cc1ccc(Sc2ccccc2N2CCNCC2)c(C)c1 [1-{2-[(2,4-dimethylphenyl)sulfanyl]phenyl}piperazine] | 8
15 | c1ccc2[nH]c(-c3cscn3)nc2c1 [2-(1,3-thiazol-4-yl)-1H-1,3-benzodiazole] | 20
16 | O=C1NCCc2[nH]c(-c3ccncc3)cc21 [2-(pyridin-4-yl)-1H,4H,5H,6H,7H-pyrrolo[3,2-c]pyridin-4-one] | 11
17 | CC(C)(Cc1nc(-c2ccc(O)cn2)no1)C(=O)NC1=C(C(=O)O)CCCC1 [2-{3-[3-(5-hydroxypyridin-2-yl)-1,2,4-oxadiazol-5-yl]-2,2-dimethylpropanamido}cyclohex-1-ene-1-carboxylic acid] | 15
18 | O=C(O)c1cccnc1Nc1cccc(C(F)(F)F)c1 [2-{[3-(trifluoromethyl)phenyl]amino}pyridine-3-carboxylic acid] | 42
19 | CC(C)N(CCCNC(=O)Nc1ccc(C(C)(C)C)cc1)C[C@H]1O[C@@H](n2ccc3c(N)ncnc32)[C@H](O)[C@@H]1O [3-[3-{{[(2R,3S,4R,5R)-5-{4-amino-7H-pyrrolo[2,3-d]pyrimidin-7-yl}-3,4-dihydroxyoxolan-2-yl]methyl}(propan-2-yl)amino)propyl]-1-(4-tert-butylphenyl)urea] | 45
20 | CC1(N)CCN(c2cccnc2NC(=O)c2nc(-c3ncccc3C(F)(F)F)cnc2N)CC1 [3-amino-N-[3-(4-amino-4-methylpiperidin-1-yl)pyridin-2-yl]-6-[3-(trifluoromethyl)pyridin-2-yl]pyrazine-2-carboxamide] | 12
21 | Cc1c(Cl)cccc1S(=O)(=O)Nc1nc(CC(=O)N2CCN(C)CC2)cs1 [3-chloro-2-methyl-N-{4-[2-(4-methylpiperazin-1-yl)-2-oxoethyl]-1,3-thiazol-2-yl}benzene-1-sulfonamide] | 14
22 | O=C(Nc1c[nH]nc1-c1nc2ccc(CN3CCOCC3)cc2[nH]1)NC1CC1 [3-cyclopropyl-1-(3-{6-[(morpholin-4-yl)methyl]-1H-1,3-benzodiazol-2-yl}-1H-pyrazol-4-yl)urea] | 15
23 | CC1=NN(c2ccccc2)C(=O)C1 [3-methyl-1-phenyl-4,5-dihydro-1H-pyrazol-5-one] | 22
24 | Cc1cc(C)nc(N)c1 [4,6-dimethylpyridin-2-amine] | 7
25 | Cc1ccc(-c2csc(N)n2)s1 [4-(5-methylthiophen-2-yl)-1,3-thiazol-2-amine] | 19
26 | Nc1nccc(/C=C/c2ccccc2)n1 [4-[(1E)-2-phenylethenyl]pyrimidin-2-amine] | 12

Row | SMILES | signal-to-noise enhancement (SNE)
27 | Cc1ccnc(NS(=O)(=O)c2ccc(N)cc2)n1 [4-amino-N-(4-methylpyrimidin-2-yl)benzene-1-sulfonamide] | 8
28 | O=C1NCCSc2c1sc1ccc(O)cc21 [4-hydroxy-8,14-dithia-11-azatricyclo[7.5.0.0^2,^7]tetradeca-1(9),2,4,6-tetraen-10-one] | 10
29 | O=C(O)c1cc2occc2[nH]1 [4H-furo[3,2-b]pyrrole-5-carboxylic acid] | 44
30 | O=C(O)c1cc2sccc2[nH]1 [4H-thieno[3,2-b]pyrrole-5-carboxylic acid] | 103
31 | O=c1[nH]cc(N2CCCCC2)c(=O)[nH]1 [5-(piperidin-1-yl)-1,2,3,4-tetrahydropyrimidine-2,4-dione] | 29
32 | Clc1ccc2nsnc2c1NC1=NCCN1 [5-chloro-N-(4,5-dihydro-1H-imidazol-2-yl)-2,1,3-benzothiadiazol-4-amine] | 7
33 | O=C1CCc2cc(OCCCCc3nnnn3C3CCCCC3)ccc2N1 [6-[4-(1-cyclohexyl-1H-1,2,3,4-tetrazol-5-yl)butoxy]-1,2,3,4-tetrahydroquinolin-2-one] | 15
34 | O=C1C(Cl)=C(NCCN2CCOCC2)C(=O)c2ncccc21 [6-chloro-7-{[2-(morpholin-4-yl)ethyl]amino}-5,8-dihydroquinoline-5,8-dione] | 7
35 | CN(C)C(=O)c1cc2cnc(Nc3ccc(N4CCNCC4)cn3)nc2n1C1CCCC1 [7-cyclopentyl-N,N-dimethyl-2-{[5-(piperazin-1-yl)pyridin-2-yl]amino}-7H-pyrrolo[2,3-d]pyrimidine-6-carboxamide] | 9
36 | CCCCNc1ncc2c(-c3ccc(CN4CCN(C)CC4)cc3)cn([C@H]3CC[C@H](O)CC3)c2n1 [(1r,4r)-4-[2-(butylamino)-5-{4-[(4-methylpiperazin-1-yl)methyl]phenyl}-7H-pyrrolo[2,3-d]pyrimidin-7-yl]cyclohexan-1-ol] | 22
37 | N[C@H]1Cc2ccccc2N(O)C1=O [(3S)-3-amino-1-hydroxy-1,2,3,4-tetrahydroquinolin-2-one] | 7
38 | Cc1c/c(=N/c2ccc(C)c(C)c2)n2ncnc2[nH]1 [(7Z)-N-(3,4-dimethylphenyl)-5-methyl-4H,7H-[1,2,4]triazolo[1,5-a]pyrimidin-7-imine] | 7
39 | OC[C@H]1O[C@@H](n2cnc3c2NC=NC[C@H]3O)C[C@@H]1O [(8R)-3-[(2R,4S,5R)-4-hydroxy-5-(hydroxymethyl)oxolan-2-yl]-3H,4H,7H,8H-imidazo[4,5-d][1,3]diazepin-8-ol] | 104
40 | C[C@@H]1COCCN1c1cc(C2([S@](C)(=N)=O)CC2)nc(-c2ccnc3[nH]ccc23)n1 [(R)-imino(methyl)(1-{6-[(3R)-3-methylmorpholin-4-yl]-2-{1H-pyrrolo[2,3-b]pyridin-4-yl}pyrimidin-4-yl}cyclopropyl)-λ^6-sulfanone] | 19
41 | COC(=O)N1CCN(c2ccc(F)cc2)CC1 [Methyl 4-(4-fluorophenyl)-1-piperazinecarboxylate] | 40
42 | CC(=O)Nc1ccc2[nH]ncc2c1 [N-(1H-indazol-5-yl)acetamide] | 18

same assay, conditions: photosensitizer methylene blue 75 μM, ligand 100 μM, 638 nm, 2 s irradiation, 600 MHz, phosphate buffer pH 7.0

Row | SMILES | signal-to-noise enhancement (SNE)
43 | NCCc1ccc(O)cc1 [4-(2-aminoethyl)phenol] | 16

same assay, conditions: photosensitizer thionine 75 μM, ligand 100 μM, 638 nm, 2 s irradiation, 600 MHz, phosphate buffer pH 7.0

Row | SMILES | signal-to-noise enhancement (SNE)
44 | CCOc1ccccc1N1CCNCC1 [1-(2-ethoxyphenyl)piperazine] | 10
45 | NC(=O)c1ccc2c(c1)CCN2 [2,3-dihydro-1H-indole-5-carboxamide] | 9
46 | NCCc1c[nH]c2ccccc12 [2-(1H-indol-3-yl)ethan-1-amine] | 15
47 | c1csc(-c2ncc[nH]2)c1 [2-(thiophen-2-yl)-1H-imidazole] | 9
48 | NCCc1ccc(O)cc1 [4-(2-aminoethyl)phenol] | 17
49 | CN(C)C(=O)c1ccc2c(c1)CCCN2 [N,N-dimethyl-1,2,3,4-tetrahydroquinoline-6-carboxamide] | 10
50 | c1ccc(CCNc2nc3ccccc3[nH]2)cc1 [N-(2-phenylethyl)-1H-benzimidazol-2-amine] | 8
51 | COCC(=O)Nc1ccc(O)cc1 [N-(4-hydroxyphenyl)-2-methoxyacetamide] | 9
